Publication PMC12607517
These are yes or no findings as the source states them, for the method shown. Binding seen in cells or lysates may run through a third protein. Some entries that bind do so weakly or less than the wild type. Sequences can lack the tags named with a protein.

Protein sequences, listed by entry. Tags and fused reporters are not part of them.
UniProt Q91VJ4: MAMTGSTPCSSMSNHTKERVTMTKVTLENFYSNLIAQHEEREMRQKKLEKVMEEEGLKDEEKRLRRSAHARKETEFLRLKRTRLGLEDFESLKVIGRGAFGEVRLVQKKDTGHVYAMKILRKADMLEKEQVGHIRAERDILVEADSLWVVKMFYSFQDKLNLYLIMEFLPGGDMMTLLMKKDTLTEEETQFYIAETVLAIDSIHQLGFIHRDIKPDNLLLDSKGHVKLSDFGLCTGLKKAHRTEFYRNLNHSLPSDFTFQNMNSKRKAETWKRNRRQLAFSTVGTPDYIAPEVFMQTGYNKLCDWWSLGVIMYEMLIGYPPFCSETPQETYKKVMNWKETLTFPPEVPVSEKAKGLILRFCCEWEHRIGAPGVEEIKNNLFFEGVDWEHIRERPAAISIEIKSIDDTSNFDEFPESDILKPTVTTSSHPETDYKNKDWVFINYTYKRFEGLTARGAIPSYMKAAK

T1: FLAG-MerTK (mouse) (UniProt Q60805)
T1 sequence: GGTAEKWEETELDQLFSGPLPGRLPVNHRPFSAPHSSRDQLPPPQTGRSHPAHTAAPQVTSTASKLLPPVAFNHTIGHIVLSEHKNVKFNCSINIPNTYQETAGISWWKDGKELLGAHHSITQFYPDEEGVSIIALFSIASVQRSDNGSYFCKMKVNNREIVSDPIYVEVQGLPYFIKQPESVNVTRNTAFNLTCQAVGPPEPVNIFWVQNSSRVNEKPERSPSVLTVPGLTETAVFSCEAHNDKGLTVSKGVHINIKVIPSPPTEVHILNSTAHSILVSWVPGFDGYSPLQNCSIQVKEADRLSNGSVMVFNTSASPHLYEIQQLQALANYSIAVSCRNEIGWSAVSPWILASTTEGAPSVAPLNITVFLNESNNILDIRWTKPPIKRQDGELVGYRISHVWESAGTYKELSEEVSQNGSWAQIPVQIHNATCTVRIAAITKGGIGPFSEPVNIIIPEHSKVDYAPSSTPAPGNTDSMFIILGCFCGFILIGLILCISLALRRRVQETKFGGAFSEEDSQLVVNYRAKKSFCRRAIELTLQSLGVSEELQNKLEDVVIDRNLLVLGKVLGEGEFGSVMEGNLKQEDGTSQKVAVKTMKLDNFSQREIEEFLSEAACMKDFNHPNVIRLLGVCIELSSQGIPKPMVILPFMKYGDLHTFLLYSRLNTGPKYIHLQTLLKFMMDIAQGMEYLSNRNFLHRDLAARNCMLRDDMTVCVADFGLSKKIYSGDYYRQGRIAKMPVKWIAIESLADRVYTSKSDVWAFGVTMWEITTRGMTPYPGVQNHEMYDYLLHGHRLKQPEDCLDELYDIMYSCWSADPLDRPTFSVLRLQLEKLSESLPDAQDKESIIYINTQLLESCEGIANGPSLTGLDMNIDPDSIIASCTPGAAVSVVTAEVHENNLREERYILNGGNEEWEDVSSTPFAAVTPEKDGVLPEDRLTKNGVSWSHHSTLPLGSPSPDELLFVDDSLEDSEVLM

B1: endogenous MerTK (HEK293T) (receptor, UniProt Q12866 21-999)
chain: AITEAREEAKPYPLFPGPFPGSLQTDHTPLLSLPHASGYQPALMFSPTQPGRPHTGNVAIPQVTSVESKPLPPLAFKHTVGHIILSEHKGVKFNCSISVPNIYQDTTISWWKDGKELLGAHHAITQFYPDDEVTAIIASFSITSVQRSDNGSYICKMKINNEEIVSDPIYIEVQGLPHFTKQPESMNVTRNTAFNLTCQAVGPPEPVNIFWVQNSSRVNEQPEKSPSVLTVPGLTEMAVFSCEAHNDKGLTVSKGVQINIKAIPSPPTEVSIRNSTAHSILISWVPGFDGYSPFRNCSIQVKEADPLSNGSVMIFNTSALPHLYQIKQLQALANYSIGVSCMNEIGWSAVSPWILASTTEGAPSVAPLNVTVFLNESSDNVDIRWMKPPTKQQDGELVGYRISHVWQSAGISKELLEEVGQNGSRARISVQVHNATCTVRIAAVTRGGVGPFSDPVKIFIPAHGWVDYAPSSTPAPGNADPVLIIFGCFCGFILIGLILYISLAIRKRVQETKFGNAFTEEDSELVVNYIAKKSFCRRAIELTLHSLGVSEELQNKLEDVVIDRNLLILGKILGEGEFGSVMEGNLKQEDGTSLKVAVKTMKLDNSSQREIEEFLSEAACMKDFSHPNVIRLLGVCIEMSSQGIPKPMVILPFMKYGDLHTYLLYSRLETGPKHIPLQTLLKFMVDIALGMEYLSNRNFLHRDLAARNCMLRDDMTVCVADFGLSKKIYSGDYYRQGRIAKMPVKWIAIESLADRVYTSKSDVWAFGVTMWEIATRGMTPYPGVQNHEMYDYLLHGHRLKQPEDCLDELYEIMYSCWRTDPLDRPTFSVLRLQLEKLLESLPDVRNQADVIYVNTQLLESSEGLAQGSTLAPLDLNIDPDSIIASCTPRAAISVVTAEVHDSKPHEGRYILNGGSEEWEDLTSAPSAAVTAEKNSVLPGERLVRNGVSWSHSSMLPLGSSLPDELLFADDSSEGSEVLM
B2: Myc-tagged full length MerTK (receptor, UniProt Q60805 19-994)
chain: GGTAEKWEETELDQLFSGPLPGRLPVNHRPFSAPHSSRDQLPPPQTGRSHPAHTAAPQVTSTASKLLPPVAFNHTIGHIVLSEHKNVKFNCSINIPNTYQETAGISWWKDGKELLGAHHSITQFYPDEEGVSIIALFSIASVQRSDNGSYFCKMKVNNREIVSDPIYVEVQGLPYFIKQPESVNVTRNTAFNLTCQAVGPPEPVNIFWVQNSSRVNEKPERSPSVLTVPGLTETAVFSCEAHNDKGLTVSKGVHINIKVIPSPPTEVHILNSTAHSILVSWVPGFDGYSPLQNCSIQVKEADRLSNGSVMVFNTSASPHLYEIQQLQALANYSIAVSCRNEIGWSAVSPWILASTTEGAPSVAPLNITVFLNESNNILDIRWTKPPIKRQDGELVGYRISHVWESAGTYKELSEEVSQNGSWAQIPVQIHNATCTVRIAAITKGGIGPFSEPVNIIIPEHSKVDYAPSSTPAPGNTDSMFIILGCFCGFILIGLILCISLALRRRVQETKFGGAFSEEDSQLVVNYRAKKSFCRRAIELTLQSLGVSEELQNKLEDVVIDRNLLVLGKVLGEGEFGSVMEGNLKQEDGTSQKVAVKTMKLDNFSQREIEEFLSEAACMKDFNHPNVIRLLGVCIELSSQGIPKPMVILPFMKYGDLHTFLLYSRLNTGPKYIHLQTLLKFMMDIAQGMEYLSNRNFLHRDLAARNCMLRDDMTVCVADFGLSKKIYSGDYYRQGRIAKMPVKWIAIESLADRVYTSKSDVWAFGVTMWEITTRGMTPYPGVQNHEMYDYLLHGHRLKQPEDCLDELYDIMYSCWSADPLDRPTFSVLRLQLEKLSESLPDAQDKESIIYINTQLLESCEGIANGPSLTGLDMNIDPDSIIASCTPGAAVSVVTAEVHENNLREERYILNGGNEEWEDVSSTPFAAVTPEKDGVLPEDRLTKNGVSWSHHSTLPLGSPSPDELLFVDDSLEDSEVLM
B3: Myc-tagged intracellular domain of MerTK (domain or fragment, UniProt Q60805 521-994)
chain: RRRVQETKFGGAFSEEDSQLVVNYRAKKSFCRRAIELTLQSLGVSEELQNKLEDVVIDRNLLVLGKVLGEGEFGSVMEGNLKQEDGTSQKVAVKTMKLDNFSQREIEEFLSEAACMKDFNHPNVIRLLGVCIELSSQGIPKPMVILPFMKYGDLHTFLLYSRLNTGPKYIHLQTLLKFMMDIAQGMEYLSNRNFLHRDLAARNCMLRDDMTVCVADFGLSKKIYSGDYYRQGRIAKMPVKWIAIESLADRVYTSKSDVWAFGVTMWEITTRGMTPYPGVQNHEMYDYLLHGHRLKQPEDCLDELYDIMYSCWSADPLDRPTFSVLRLQLEKLSESLPDAQDKESIIYINTQLLESCEGIANGPSLTGLDMNIDPDSIIASCTPGAAVSVVTAEVHENNLREERYILNGGNEEWEDVSSTPFAAVTPEKDGVLPEDRLTKNGVSWSHHSTLPLGSPSPDELLFVDDSLEDSEVLM

Key:
FLAG-MerTK (mouse) = target: T1, FLAG-MerTK (mouse); assay: co-IP; HEK293T transfected for 48 h; RIPA lysates incubated with anti-FLAG M2 beads at 4 °C for 2 h, washed three times with RIPA; immunoblot with anti-FLAG, anti-Myc, anti-STK38 or anti-MerTK
FLAG-STK38 (mouse) = FLAG-STK38 (mouse) (UniProt Q91VJ4); assay: as above

Molecule | binding (FLAG-MerTK (mouse)) | binding (FLAG-STK38 (mouse))
Myc-STK38 (from UniProt Q91VJ4 1-465) (enzyme) | binds | –
B1 | – | binds
B2 | – | binds
B3 | – | binds
